PubChem BioAssay AID504467 (National Center for Advancing Translational Sciences (NCATS), 2011)
“And” between values parts separate entries of the source, which are not always exact repeats. Equal entries are not always repeated. Out of some 330,000 compounds screened, about 7,700 (2.3%) were called active. The shares of active, inactive and inconclusive entries below differ from those in the screen. Calls follow the shape of the dose curve; as a rule, active = well fitted inhibition curve with a large enough effect; inconclusive = small, poorly fitted or top-dose-only effect, or effect the other way; inactive = flat fitted curve, though single readings scatter. Where the call is inconclusive, the potency comes from a doubtful curve fit.

Assay: qHTS screen for small molecules that inhibit ELG1-dependent DNA repair in human embryonic kidney (HEK293T) cells expressing luciferase-tagged ELG1; also: nearly all actives have a fitted effect of over 55% in size
Settings: HEK293T ELG1-luciferase reporter, luminescence, 16 h, DNA damage induced by 5-fluorouridine; activity change, negative = inhibition: at 46.1 µM (top of the series)
Summary of the method: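 Cells (2,000 per well) received 5-fluorouridine plus test compound or DMSO and were incubated 16 hr at 37 °C, 5% CO2. Luciferase activity was read by luminescence 30 min after ONE-Glo addition; signal suppression marked inhibition of damage-induced ELG1 function.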
% is scaled to controls: 0 for no effect and ±100 for the full control effect; potency is read from the fitted curve at half-maximal effect.

Row | SMILES | activity change, negative = inhibition | Potency
1 | COc1ccc(C(=O)NCc2nnc(SCC(=O)NCc3ccco3)o2)cc1OC | inactive: 21.6% | 
2 | COc1cc([N+](=O)[O-])ccc1NC(=O)/C=C/C(=O)O |  | inconclusive: 20.6 µM [inhibitor, single point]
3 | CCn1cc(NC(=O)CCl)c(C)n1 | inactive: -8.02% | 
4 | O=C(CN1C(=O)C2CCCCC2C1=O)Nc1nc(-c2ccc(F)cc2)cs1 (stereo not given) |  | inconclusive: 6.51 µM [inhibitor, partial curve, poor fit]
5 | N/C(=N\OC(=O)c1ccc(Cl)cc1)c1ccc(Cl)cc1 |  | inconclusive: 14.6 µM [activator, partial curve]
6 | O=C(CNC(=O)c1cccs1)OCc1ccc(Br)cc1 | inactive: 1.86% | 
7 | c1ccc(-c2nc3ccccc3s2)nc1 |  | inconclusive: 11.6 µM [activator, partial curve] and inconclusive: 6.51 µM [activator, partial curve]
8 | CCCCN(C(=O)C1CCCO1)c1c(N)n(CCC)c(=O)[nH]c1=O (stereo not given) | inactive: -1.35% | 
9 | CC(C)(C)OC(=O)NCC(=O)Oc1cc2oc(=O)cc(-c3ccccc3)c2cc1Cl |  | inconclusive: 18.4 µM [inhibitor, partial curve]
10 | COc1ccc(C(=O)Nc2nc(N)n(-c3ccccc3)n2)cc1 |  | inconclusive: 29.1 µM [activator, single point]
11 | COc1cccc(S(=O)(=O)NCc2ccc(C(=O)Nc3cccc(Cl)c3)cc2)c1 |  | active: 18.4 µM
12 | CCOc1cc(C(=O)Nc2cc(C)ccn2)cc(OCC)c1OCC |  | inconclusive: 12.6 µM [inhibitor, partial curve, poor fit]
13 | CN1C(=O)NC(c2ccc(O)cc2)C2=C1CN(c1cccc3ccccc13)C2=O (stereo not given) |  | inconclusive: 0.73 µM [inhibitor, single point]
14 | O=C1c2ccccc2C(=O)N1COc1ccc(S(=O)(=O)N2CCOCC2)cc1[N+](=O)[O-] | inactive: 0% | 
15 | COc1ccc(OC)c(-n2c(C)cc(/C=C3\C(=N)N4N=C(CC(=O)N5CCOCC5)SC4=NC3=O)c2C)c1 |  | inconclusive: 11.6 µM [activator, partial curve, poor fit]
16 | C/C(=N\Nc1ccc(Cl)c(C(=O)O)c1)c1ccccn1 |  | inconclusive: 23.1 µM [activator, partial curve]
17 | O=C(Cn1cnc2c(NCc3ccccc3)ncnc21)NCc1ccc2c(c1)OCO2 |  | inconclusive: 29.1 µM [inhibitor, single point]
18 | Cc1ccc(OCCNC(=O)c2cccc(S(=O)(=O)NCc3ccccc3)c2)cc1 |  | inconclusive: 8.2 µM [inhibitor, partial curve]
19 | CCNC(=O)c1cc(S(=O)(=O)N2CCSCC2)ccc1OC | inactive: 14% | 
20 | COc1ccc(CNC(=O)CN(C(=O)CCC(=O)Nc2nccs2)c2ccccc2C)cc1 | inactive: 6.98% | 
21 | CCOC(=O)c1c(N)sc(C(O)(C(F)(F)F)C(F)(F)F)c1-c1ccc(OC)cc1OC |  | inconclusive: 16.4 µM [inhibitor, single point]
22 | COc1cc(NC(=O)C2CC(c3cccc(Br)c3)=NO2)cc(OC)c1OC (stereo not given) |  | inconclusive: 29.1 µM [inhibitor, single point]
23 | CCOC(=O)CNC(=O)c1ccc(C#CC2(O)CCCCC2)cc1 |  | inconclusive: 32.6 µM [activator, partial curve, poor fit]
24 | O=C(CCN1CCN(C/C=C/c2ccccc2)CC1)Nc1ccccc1 | inactive: -7.73% | 

Structures above with a COOH group (2):
Row | SMILES | activity change, negative = inhibition | Potency
2 | COc1cc([N+](=O)[O-])ccc1NC(=O)/C=C/C(=O)O |  | inconclusive: 20.6 µM [inhibitor, single point]
16 | C/C(=N\Nc1ccc(Cl)c(C(=O)O)c1)c1ccccn1 |  | inconclusive: 23.1 µM [activator, partial curve]

Later entries

Row | SMILES | activity change, negative = inhibition | Potency
25 | O=C(NNc1cc(Cl)ccc1Cl)c1c(F)cccc1Cl |  | inconclusive: 6.51 µM [inhibitor, single point]
26 | CC(C1CC1)N(C(=O)c1ccccc1[N+](=O)[O-])c1ccccc1 (stereo not given) |  | inconclusive: 29.1 µM [inhibitor, single point]
27 | O=C(COc1ccc(CO)cc1)Nc1ccc(F)cc1 |  | inconclusive: 16.4 µM [activator, single point]
28 | C/C(=N/NC(=O)c1cccs1)c1c(C)[nH]n(-c2nc3ccccc3s2)c1=O |  | inconclusive: 2.31 µM [activator, partial curve]
29 | O=C(c1ccc(Cl)s1)N1CCc2ccccc21 |  | inconclusive: 11.6 µM [activator, partial curve]
30 | Cc1ccc(N2CCN(S(=O)(=O)N3CCCCC3)CC2)cc1C | inactive: -0.912% | 
31 | COc1ccc(Br)cc1CNc1ccc2[nH]c(=O)[nH]c2c1 | inactive: -4.17% | 
32 | CCCCOC(=O)c1[nH]c(C)c(C(=O)OC)c1C |  | inconclusive: 5.8 µM [activator, full curve]
33 | Cc1ccc(NC2CCCN(C(=O)c3ccoc3)C2)cc1C (stereo not given) |  | inconclusive: 4.11 µM [activator, partial curve, poor fit]
34 | CCCc1cc(C(=O)Nc2ccc(C(=O)c3ccc(F)cc3)cc2)n(C)n1 |  | inconclusive: 25.9 µM [inhibitor, partial curve, poor fit]
35 | O=C(COc1ccc(Cl)cc1Br)N1CCN(S(=O)(=O)c2ccccc2)CC1 |  | inconclusive: 20.6 µM [inhibitor, partial curve, poor fit]
36 | CC(C)c1ccc(NC(=O)C2CCCN(S(=O)(=O)c3cccnc3)C2)cc1 (stereo not given) |  | inconclusive: 32.6 µM [inhibitor, partial curve, poor fit]
37 | COc1ccc(N(CC(=O)Nc2ccc(OC)c(OC)c2)S(=O)(=O)c2ccccc2)cc1Cl |  | inconclusive: 29.1 µM [inhibitor, single point]
38 | O=C(NC1=NCCS1)c1cc(-c2ccc(F)cc2)nc2ccccc12 |  | inconclusive: 29.1 µM [inhibitor, single point]
39 | Cc1cc(OC2CCCCC2)nc(-c2ccccc2O)n1 | inactive: 26.9% | 
40 | CNC(=O)Nc1cccc(NC(=O)NC)n1 |  | inconclusive: 18.4 µM [activator, single point]
41 | Cc1ccc(CC2CC(=O)N(c3nc4ccccc4s3)C2=O)cc1 (stereo not given) | inactive: 3.4% | 
42 | COc1cccc(CSc2nnc(CSc3nc4nc(C)cc(C)n4n3)s2)c1 |  | inconclusive: 25.9 µM [inhibitor, partial curve, poor fit]
43 | COC(=O)c1ccccc1NS(=O)(=O)c1ccc(NC(C)=O)cc1 | inactive: -8.35% | 
44 | Cc1ccc(C)c(OCCC(=O)Nc2cccc(S(=O)(=O)N3CCCC3)c2)c1 | inactive: -28.4% | 
45 | Cc1ccc(S(=O)(=O)N2CCN(Cc3nc4ccccc4n3C)CC2)cc1 |  | inconclusive: 32.6 µM [inhibitor, single point]
46 | CC(C)Nc1cc(C(C)(C)C)nc2c(-c3ccccc3)cnn12 |  | inconclusive: 16.4 µM [activator, partial curve]
47 | CCOc1ccc(N/C(C)=C\C(=O)c2ccc3c(c2)OCCO3)cc1 |  | inconclusive: 10.3 µM [activator, partial curve]
48 | O=C1C=C(Nc2ccc(Cl)cc2Cl)CC(c2ccco2)C1 (stereo not given) |  | inconclusive: 4.11 µM [inhibitor, single point]

A different layout for part of the listing above.
Row	SMILES	activity change, negative = inhibition	Potency
39	Cc1cc(OC2CCCCC2)nc(-c2ccccc2O)n1	inactive: 26.9%	
40	CNC(=O)Nc1cccc(NC(=O)NC)n1		inconclusive: 18.4 µM [activator, single point]
41	Cc1ccc(CC2CC(=O)N(c3nc4ccccc4s3)C2=O)cc1 (stereo not given)	inactive: 3.4%	

Later entries:

Row | SMILES | activity change, negative = inhibition | Potency
49 | COc1ccccc1N1CCN(C(=O)C(NS(=O)(=O)c2cccs2)c2ccccc2)CC1 (stereo not given) | inactive: -27.1% | 
50 | O=C(c1cc(-c2ccccc2O)on1)N1CCCCCC1 |  | inconclusive: 14.6 µM [activator, partial curve]
51 | CCOC(=O)Nc1cccc(OCC(=O)Nc2ccccc2OC)c1 |  | inconclusive: 29.1 µM [inhibitor, single point]
52 | CC1CC(C)CN(C(=O)C2CCN(C(=O)Nc3ccccc3)CC2)C1 (stereo not given) | inactive: -6.77% | 
53 | O=C(CNC(=O)c1ccccc1F)N/N=C/c1ccc2c(c1)OCO2 |  | inconclusive: 13 µM [activator, partial curve]
54 | O=C(OCC(=O)N(CCc1ccccc1)Cc1ccccc1)c1cc(S(=O)(=O)N2CCOCC2)ccc1F | inactive: -23% | 
55 | COc1ccc(CCNC(=O)C(C)n2nc(C)n3c(cc4occc43)c2=O)cc1OC (stereo not given) | inactive: 13.9% | 
56 | Cn1nc(CC(=O)Nc2cccc3ncccc23)c2ccccc2c1=O |  | active: 7.31 µM
57 | CCOc1cccc(OCCn2cnc3ccccc3c2=O)c1 |  | inconclusive: 16.4 µM [activator, partial curve]
58 | O=C(c1cc2cc(Cl)ccc2[nH]1)N1CCCCC1 |  | inconclusive: 13 µM [activator, partial curve]
59 | CC(C)Oc1ccc(CCC(=O)N/N=C/c2ccc3c(c2)OCO3)cc1 | inactive: -8.97% | 
60 | CCOc1cc(NC(=O)c2ccccc2OC)c(OCC)cc1NC(=O)c1ccccc1 | inactive: -5.64% | 
61 | Cc1cc(=O)oc2cc(NC(=O)c3ccccc3Cl)ccc12 |  | inconclusive: 16.4 µM [activator, partial curve]
62 | Cc1cc(Cl)c(S(=O)(=O)N2CCCC2)cc1OCC(=O)NC1CCCCC1 |  | active: 13 µM
63 | COc1ccc(C(=O)NCCc2c[nH]c3ccccc23)cc1 |  | inconclusive: 7.3 µM [activator, partial curve]
64 | CCOC(=O)N1CCC(n2c(SCC(=O)c3ccccc3)nc3ccsc3c2=O)CC1 |  | inconclusive: 0.0046 µM [activator, full curve, poor fit]
65 | C/C(CC(=O)Nc1ccccn1)=N\NC(=O)c1cnccn1 |  | inconclusive: 29.1 µM [activator, single point]
66 | Cc1oncc1C(=O)Nc1cccc2ccccc12 |  | inconclusive: 16.4 µM [activator, partial curve, poor fit]
67 | CC12COC3(C(=O)Nc4ccccc4)CC1CCC32C (stereo not given) | inactive: -2.8% | 
68 | COc1ccc(NS(=O)(=O)c2cccc(C(=O)N(C)Cc3ccc(SC)cc3)c2)cc1 |  | inconclusive: 9.2 µM [inhibitor, single point]
69 | CCCCOc1cccc(NC(=O)CSc2nncn2C)c1 |  | inconclusive: 20.6 µM [activator, partial curve, poor fit]
70 | COc1cccc2sc(N(CCCN(C)C)C(=O)c3ccc(S(=O)(=O)N4CCCc5ccccc54)cc3)nc12 |  | inconclusive: 23.1 µM [inhibitor, partial curve, poor fit]
